For 6 molecules, binding results are on record in doi:10.1101/2024.01.30.578027.

Where a chain is given by its changes, count along the chain named. Read-outs that look alike come from different tables or passages of the source. No constants are given. Whether binding was seen depends on the method and setting. For some of these results: In cells and extracts the contact can be indirect. Some results given as binding are weak or reduced against the parent protein; the word gives no strength. For some of these results: Sequences can lack the tags named with a protein.

Experiment [1] deals with T1, Arc (rat (endogenous in primary hippocampal neurons)) (UniProt Q63053).
T1 sequence: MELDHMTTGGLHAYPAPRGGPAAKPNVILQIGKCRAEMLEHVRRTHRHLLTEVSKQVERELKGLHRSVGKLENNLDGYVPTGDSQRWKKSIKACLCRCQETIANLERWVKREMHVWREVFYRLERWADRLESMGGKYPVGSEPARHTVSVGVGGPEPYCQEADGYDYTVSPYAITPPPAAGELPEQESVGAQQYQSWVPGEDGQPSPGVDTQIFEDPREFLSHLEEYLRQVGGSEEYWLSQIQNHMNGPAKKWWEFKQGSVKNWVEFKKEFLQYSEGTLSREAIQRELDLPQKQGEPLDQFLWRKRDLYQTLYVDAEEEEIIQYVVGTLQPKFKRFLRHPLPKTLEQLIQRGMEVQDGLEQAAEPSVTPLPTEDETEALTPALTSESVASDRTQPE
Nature of the experiment: proximity ligation.

The target of experiment [2] is T2, Arc (mouse (endogenous in forebrain)) (UniProt Q9WV31).
T2 sequence: T1 sequence with G190E, V198G, D289E, F333L, V367G
Nature of the experiment: co-IP.

The target in experiment [3] is T3, purified Arc protein (not stated (rat Arc cDNA named for the other plasmids)) (UniProt Q63053).
T3 sequence: T1 sequence
Nature of the experiment: co-sedimentation.

Experiment [4] deals with IRSp53 (mouse) (UniProt Q8BKX1). In words: co-IP.
The target in a further experiment is GST-IRSp53 (mouse) (UniProt Q8BKX1). In words: pull-down.
The next experiment addresses T4, GST-IRSp53-SH3 (mouse) (UniProt Q8BKX1).
T4 sequence: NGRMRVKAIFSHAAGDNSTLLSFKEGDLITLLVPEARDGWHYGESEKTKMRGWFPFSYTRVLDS
In words: pull-down.

Experiment [5] addresses IRSp53 (mouse) (UniProt Q8BKX1). Nature of the experiment: co-IP. The source holds these as a separate data set.

Turning to IRSp53 (from UniProt Q6GMN2 1-535), the binding entry in experiment [1] is “binds”. For IRSp53 (from UniProt Q8BKX1 1-535), the binding entry in experiment [2] is reported as “binds”. On to IRSp53 (from UniProt Q8BKX1-1 1-535), for which, in experiment [3], the binding entry was “binds”. Take “myc-Arc^Δ20–40 (from UniProt Q63053 1-396)”: the binding result in the experiment with IRSp53 (mouse) [4] was “no binding”.

B1: purified Arc protein (protein, UniProt Q63053 1-396)
chain: T1 sequence
Regarding B1, the binding result with GST-IRSp53 (mouse) and with GST-IRSp53-SH3 (mouse) was “binds” each time.

B2: myc-Arc (protein, UniProt Q63053 1-396)
chain: T1 sequence
On to B2, for which the binding result in the experiment with IRSp53 (mouse) [5] is reported as “binds”.
